Data: patent publication US20210087231A1 (UNIVERSITY OF MARYLAND BALTIMORE, published 2021)
No constants are given. Whether binding was seen depends on the method and setting. Binding seen in cells or lysates may run through a third protein. Some results given as binding are weak or reduced against the parent protein; the word gives no strength.

Sequences of proteins named here, by UniProt entry; tags and fusion partners are left off.
UniProt P22366: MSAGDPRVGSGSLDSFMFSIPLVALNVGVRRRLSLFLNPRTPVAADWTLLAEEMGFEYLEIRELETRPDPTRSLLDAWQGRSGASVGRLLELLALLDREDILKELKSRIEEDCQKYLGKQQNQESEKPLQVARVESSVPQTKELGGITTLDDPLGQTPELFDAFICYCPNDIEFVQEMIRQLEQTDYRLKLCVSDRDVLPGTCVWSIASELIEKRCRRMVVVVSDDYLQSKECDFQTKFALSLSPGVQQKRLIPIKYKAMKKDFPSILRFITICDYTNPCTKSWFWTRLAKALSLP

Molecular target: T1, IRAK4 (endogenous, mouse bone marrow-derived macrophages) (mouse) (UniProt Q8R4K2)
T1 sequence (looked up): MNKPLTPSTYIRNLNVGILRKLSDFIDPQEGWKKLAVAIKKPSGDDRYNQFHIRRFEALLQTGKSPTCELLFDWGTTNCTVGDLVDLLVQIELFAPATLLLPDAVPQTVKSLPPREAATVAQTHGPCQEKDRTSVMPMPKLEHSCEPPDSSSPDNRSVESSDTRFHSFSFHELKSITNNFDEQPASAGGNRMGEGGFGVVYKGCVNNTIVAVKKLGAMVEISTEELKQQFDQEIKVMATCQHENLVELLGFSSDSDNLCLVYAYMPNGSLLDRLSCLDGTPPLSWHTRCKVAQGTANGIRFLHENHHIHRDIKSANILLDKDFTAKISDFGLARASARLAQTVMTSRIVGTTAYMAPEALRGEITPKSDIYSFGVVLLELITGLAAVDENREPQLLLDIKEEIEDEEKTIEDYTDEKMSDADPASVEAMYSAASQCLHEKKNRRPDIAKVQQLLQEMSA
Test: co-immunoprecipitation: anti-MyD88 Ab pull-down from lysates of ODN 1668-stimulated mouse BMDM, anti-IRAK4 blot (FIG. 7)

Substance: MyD88 (endogenous, mouse bone marrow-derived macrophages) (from UniProt P22366 1-296)
- binding: binds
